These are yes or no findings as the source states them, for the method shown. Some results given as binding are weak or reduced against the parent protein; the word gives no strength.

This note sets out measurements from US20220204577A1, “Synthetic Peptides With Affinity for the Interleukin-10 Receptor, Pharmaceutical Composition and Use Thereof as Immunomodulators for Treating Autoimmune, Inflammatory or Allergic Diseases” (Universidade Federal de Uberlândia, priority 2019, published 2022).

This assay concerns the target T1, Interleukin-10 (IL-10) receptor on the J774 cell line (UniProt Q61727).
T1 sequence (looked up): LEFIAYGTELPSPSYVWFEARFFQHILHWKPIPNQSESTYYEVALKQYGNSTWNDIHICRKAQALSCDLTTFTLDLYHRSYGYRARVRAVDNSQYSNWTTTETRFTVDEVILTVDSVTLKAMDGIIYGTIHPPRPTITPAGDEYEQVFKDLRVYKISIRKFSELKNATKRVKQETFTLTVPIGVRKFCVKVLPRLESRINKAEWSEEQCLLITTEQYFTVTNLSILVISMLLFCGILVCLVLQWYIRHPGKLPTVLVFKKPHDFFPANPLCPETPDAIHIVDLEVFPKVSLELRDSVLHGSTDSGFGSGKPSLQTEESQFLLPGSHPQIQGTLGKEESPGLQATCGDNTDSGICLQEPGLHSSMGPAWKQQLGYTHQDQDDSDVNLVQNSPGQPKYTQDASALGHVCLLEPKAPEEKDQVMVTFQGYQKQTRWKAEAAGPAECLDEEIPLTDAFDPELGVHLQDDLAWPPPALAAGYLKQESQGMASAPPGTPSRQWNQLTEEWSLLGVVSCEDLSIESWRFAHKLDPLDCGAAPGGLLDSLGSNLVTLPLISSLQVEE
Put plainly: phage display selection on J774 cells, three rounds, competitive elution with rIL-10.

As for HASSAVIKSSSGGGS [Peptide 2 (Pep 2)], the binding result is on record as “binds”.

On to HCFDTQRMEFRMPPGGGS [Peptide 3 (Pep 3)], for which the binding result is given as “binds”.

As to HACSAVIKSSCGGGS (disulfide bridge (Cys at positions 3 and 11, replacing the Ser of Pep 2)) [Peptide 1 (Pep 1)], the binding entry was “binds”.

For the molecule HCMTGSRATFPSAPGGGS [Peptide 4 (Pep 4)], the binding entry was “binds”.
